# Screening data, single-dose tests

Protein sequences, listed by entry. Tags and fused reporters are not part of them. Residues count along the entry.
UniProt Q8IDJ8, 1-583: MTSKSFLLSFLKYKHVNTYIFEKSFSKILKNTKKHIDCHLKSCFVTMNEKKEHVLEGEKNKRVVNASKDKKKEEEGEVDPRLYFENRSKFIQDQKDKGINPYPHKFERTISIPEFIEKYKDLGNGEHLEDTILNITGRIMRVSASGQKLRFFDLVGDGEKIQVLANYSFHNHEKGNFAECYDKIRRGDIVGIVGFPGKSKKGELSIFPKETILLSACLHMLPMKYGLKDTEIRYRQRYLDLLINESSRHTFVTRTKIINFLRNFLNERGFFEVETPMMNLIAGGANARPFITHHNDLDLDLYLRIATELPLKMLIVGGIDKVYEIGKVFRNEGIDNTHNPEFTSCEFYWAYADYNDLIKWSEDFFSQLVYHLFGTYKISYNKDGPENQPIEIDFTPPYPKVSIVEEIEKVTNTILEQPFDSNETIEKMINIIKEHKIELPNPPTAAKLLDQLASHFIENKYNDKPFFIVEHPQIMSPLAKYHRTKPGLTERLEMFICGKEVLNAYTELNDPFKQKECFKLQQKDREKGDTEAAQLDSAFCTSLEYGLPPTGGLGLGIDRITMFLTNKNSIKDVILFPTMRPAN
UniProt P9WFT3, whole entry: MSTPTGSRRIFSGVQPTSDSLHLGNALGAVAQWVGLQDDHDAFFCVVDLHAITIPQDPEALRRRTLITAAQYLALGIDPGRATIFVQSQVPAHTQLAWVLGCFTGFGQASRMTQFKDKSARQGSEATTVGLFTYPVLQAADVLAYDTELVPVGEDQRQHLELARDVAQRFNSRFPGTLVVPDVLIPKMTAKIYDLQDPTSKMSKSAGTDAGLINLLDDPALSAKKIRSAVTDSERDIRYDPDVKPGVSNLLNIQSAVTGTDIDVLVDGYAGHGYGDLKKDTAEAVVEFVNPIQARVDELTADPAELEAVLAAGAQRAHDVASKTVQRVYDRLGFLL

PfKRS1: 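Enzyme assay of the cytosolic lysyl-tRNA synthetase in 384-well plates, read by luminescence. Target: Lysine-tRNA ligase, Plasmodium falciparum 3D7 (UniProt Q8IDJ8). Concentration: 30 µM. Direction is inferred from only a few compounds that gave an IC50; most scored high, so higher reads as stronger inhibition. Of about 69,000 compounds tested this way, about 49 (0.071%) reached 50% or more in at least one test.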
MtTrpRS: 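Tryptophan-tRNA ligase, Mycobacterium tuberculosis (UniProt P9WFT3). Enzyme assay of tryptophanyl-tRNA synthetase; the read-out is not stated. Tested at 10 µM. Direction is not recorded; retested compounds ran higher, which suggests that high means inhibition. About 65,000 compounds were tested under these conditions; 0.098% (about 64) showed 50% or more at least once.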
Leishmania in macrophages: 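Cell assay of Leishmania donovani living inside macrophages; the read-out is not stated. Tested at 30 µM. The record gives no direction; compounds that gave an IC50 in retests scored well above the rest, so higher reads as stronger inhibition. About 69,000 compounds were tested under these conditions; 1.5% (about 1,000) showed 50% or more at least once.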

The filed quantity is “Percent Effect” (%).
The record does not define 0% and 100%; most values in the screen are far below 50% and negative numbers occur (in some assays of this library far below -100).
The compounds are a random part of those screened.
A dash means the value is not listed here; it may have been measured.

| # | structure | PfKRS1 | MtTrpRS | Leishmania in macrophages |
|---|---|---|---|---|
| 1 | `CN1CCCN(C(=O)c2ccc3c(c2)nc(N2CCOCC2)n3C)CC1` | 2.99 | 0.3791 | 1.542 |
| 2 | `CCOCCCNC(=O)c1cc(OC)c2ccoc2c1` | 6.288 | 0.6461 | 28.02 |
| 3 | `COc1cccc(Cn2cc(C3=CCN(CC(=O)N(C)C)CC3)cn2)c1` | 2.981 | -1.566 | 37.23 |
| 4 | `COCCNC(=O)Nc1ccc(-n2cncn2)c(C(F)(F)F)c1` | 1.014 | -4.368 | 13.99 |
| 5 | `COc1ccc(CNc2c(C)nn(C(C)C)c2C)cc1OC` | 2.36 | -2.142 | - |
| 6 | `O=C(NCCCc1ccco1)c1ccc(N2CCOCC2)cc1` | 2.851 | -14.27 | 5.759 |
| 7 | `O=C(c1cccnc1Oc1ccc(Cl)cc1)N1CC[C@@H](O)C1` | -0.4403 | - | 7.876 |
| 8 | `O=C(O)C(F)(F)F.O=C(O)C(F)(F)F.[H][C@@]12CN(Cc3cccnc3)CCO[C@]1([H])CN(C(C)=O)C2` | - | - | 18.7 |
| 9 | `CNC(=O)Cc1ccc(NC(=O)NCc2ncc(C)s2)cc1` | -4.635 | -0.7389 | 4.179 |
| 10 | `O=S1(=O)CCC(N(Cc2nc3ccccc3o2)Cc2cccs2)C1` (stereo not drawn) | -1.249 | 57.01 | -12.73 |
| 11 | `CCc1noc(C2CCCCN2C(=O)c2nnc3ccccc3n2)n1` (stereo not drawn) | 6.006 | 11.06 | 9.669 |
| 12 | `Cc1occc1C(=O)N1CCC2(CCCN(Cc3nccs3)C2)C1.O=C(O)C(F)(F)F` (stereo not drawn) | - | - | -15.88 |
| 13 | `CC[C@@H]1N(Cc2ccccn2)CCC[C@]12CCC(=O)N2CCOC` | 0.2547 | -8.621 | -4.535 |
| 14 | `CC(c1ccc(Br)cc1)N1CCCN(C(N)=O)CC1` (stereo not drawn) | -0.7736 | 2.083 | -3.448 |
| 15 | `CCN(CC)Cc1cn2c(n1)CN(C1CCOC1)CC2.O=C(O)C(F)(F)F.O=C(O)C(F)(F)F` (stereo not drawn) | - | - | -1.837 |
| 16 | `O=C([C@H]1CN(Cc2ccccc2F)C[C@H]2OCC[C@@H]12)N1CCCO1` | 0.3285 | 8.643 | - |
| 17 | `O=C(O)C(F)(F)F.O=C(O)C(F)(F)F.[H][C@@]12CCN(Cc3cccs3)C[C@]1(COc1cccnc1)CCO2` | - | - | 13.49 |
| 18 | `c1cnnc(N[C@@H]2CC[C@@H]3CN(Cc4ccc5[nH]ccc5c4)C[C@@H]32)c1` | -1.209 | -8.799 | - |
| 19 | `COC(=O)CCNC(=O)c1c[nH]cc1-c1cccc(OC)c1` | 2.269 | 2.624 | 9.796 |
| 20 | `[H][C@@]12CC[C@H](Oc3cccc(F)c3)[C@]1([H])CN(C(=O)Cn1ccnc1)C2` | - | - | -16.29 |
| 21 | `[H][C@@]12CCN(C[C@@H]1CN1CCc3ccccc3C1)[C@@H](CNC(=O)COC)C2` | - | - | 20.64 |
| 22 | `Cn1cc(C(=O)N2C[C@@H]3CN(S(C)(=O)=O)CCO[C@@H]3C2)cn1` | 1.622 | - | - |
| 23 | `Cc1nccnc1N1CCC2(CCCN(C3CCOCC3)C2=O)C1` (stereo not drawn) | -11.33 | -0.7401 | -3.694 |
| 24 | `COc1cc(F)ccc1N1CCN(Cc2nnc(C3CC3)o2)CC1` | 0.4473 | 3.302 | -3.472 |
| 25 | `CCn1nc(CC(C)C)cc1C(=O)N1CC[C@@H](O)C1` | -1.557 | 3.908 | 14.81 |
| 26 | `CCC(CC)NC(=O)c1ccc2nnc(C3CCN(C(C)=O)C3)n2c1` (stereo not drawn) | 2.869 | -1.647 | 17.58 |
| 27 | `CNC(=O)C1CCN(Cc2cc3c(cc2O)CCC3)CC1` | -2.856 | 9.598 | 5.498 |
| 28 | `Cc1nc(-c2nc(C(=O)N3CCOCC3)c3ccccn23)cn1C(C)C` | 5.577 | 0.8137 | 11.85 |
| 29 | `Cn1cc(CN2CCC[C@]3(C[C@@H](Oc4ccccn4)CO3)C2)cn1` | 2.261 | - | - |
| 30 | `CCC(CC)N1CCC(c2[nH]ncc2S(C)(=O)=O)C1` (stereo not drawn) | 2.673 | -4.008 | 20.69 |
| 31 | `O=C(O)C(F)(F)F.O=C(O)C(F)(F)F.[H][C@@]12CCCO[C@]1([H])[C@H](Nc1ccccn1)CN(Cc1scnc1C)C2` | - | - | -3.269 |
| 32 | `CN1CC(NC(=O)CCCc2cc(Cl)sc2Cl)CCC1=O` (stereo not drawn) | -0.9709 | -4.124 | -11.06 |
| 33 | `CCC(C)NC(=O)Nc1cccc(OCC#N)c1` (stereo not drawn) | 5.278 | 1.329 | 2.355 |
| 34 | `CN(Cc1ccncc1)C1COC2(CCN(Cc3ccsc3)CC2)C1.O=C(O)C(F)(F)F.O=C(O)C(F)(F)F.O=C(O)C(F)(F)F` (stereo not drawn) | - | - | 26.56 |
| 35 | `[H][C@@]12CCC(=O)N(CCCOC)[C@]1([H])CCN(Cc1cc3ccccc3o1)C2` | - | - | 10.23 |
| 36 | `CCN(Cc1ccccc1)C(=O)CN1CCCCC1Cn1cncn1` (stereo not drawn) | 1.8 | -1.718 | -2.278 |
| 37 | `Cn1ccnc1CNC1CCCOc2c1ccc1ccccc21` (stereo not drawn) | 2.173 | -2.994 | 20.1 |
| 38 | `CC(C)c1nc(CN(C)C(=O)CNS(=O)(=O)c2cccs2)no1` | -7.641 | 0.3734 | -83.9 |
| 39 | `Fc1cccc(N2CCCC3(CN(Cc4nccs4)CCO3)C2)c1` (stereo not drawn) | 1.283 | -0.2274 | - |

The last 4 entries again:

structure,PfKRS1,MtTrpRS,Leishmania in macrophages
CCN(Cc1ccccc1)C(=O)CN1CCCCC1Cn1cncn1 (stereo not drawn),1.8,-1.718,-2.278
Cn1ccnc1CNC1CCCOc2c1ccc1ccccc21 (stereo not drawn),2.173,-2.994,20.1
CC(C)c1nc(CN(C)C(=O)CNS(=O)(=O)c2cccs2)no1,-7.641,0.3734,-83.9
Fc1cccc(N2CCCC3(CN(Cc4nccs4)CCO3)C2)c1 (stereo not drawn),1.283,-0.2274,-

The values are deposited in ChEMBL (CHEMBL3988442, “University of Dundee, Small-Polar-MMV Screening Library” (2021)).